# Source: PubChem BioAssay (EPA / NIEHS)
# Protein sequences, listed by entry. Tags and fused reporters are not part of them. Lines headed by an entry give the natural chain unless they say otherwise; changes in a name come on top.
# UniProt P10275: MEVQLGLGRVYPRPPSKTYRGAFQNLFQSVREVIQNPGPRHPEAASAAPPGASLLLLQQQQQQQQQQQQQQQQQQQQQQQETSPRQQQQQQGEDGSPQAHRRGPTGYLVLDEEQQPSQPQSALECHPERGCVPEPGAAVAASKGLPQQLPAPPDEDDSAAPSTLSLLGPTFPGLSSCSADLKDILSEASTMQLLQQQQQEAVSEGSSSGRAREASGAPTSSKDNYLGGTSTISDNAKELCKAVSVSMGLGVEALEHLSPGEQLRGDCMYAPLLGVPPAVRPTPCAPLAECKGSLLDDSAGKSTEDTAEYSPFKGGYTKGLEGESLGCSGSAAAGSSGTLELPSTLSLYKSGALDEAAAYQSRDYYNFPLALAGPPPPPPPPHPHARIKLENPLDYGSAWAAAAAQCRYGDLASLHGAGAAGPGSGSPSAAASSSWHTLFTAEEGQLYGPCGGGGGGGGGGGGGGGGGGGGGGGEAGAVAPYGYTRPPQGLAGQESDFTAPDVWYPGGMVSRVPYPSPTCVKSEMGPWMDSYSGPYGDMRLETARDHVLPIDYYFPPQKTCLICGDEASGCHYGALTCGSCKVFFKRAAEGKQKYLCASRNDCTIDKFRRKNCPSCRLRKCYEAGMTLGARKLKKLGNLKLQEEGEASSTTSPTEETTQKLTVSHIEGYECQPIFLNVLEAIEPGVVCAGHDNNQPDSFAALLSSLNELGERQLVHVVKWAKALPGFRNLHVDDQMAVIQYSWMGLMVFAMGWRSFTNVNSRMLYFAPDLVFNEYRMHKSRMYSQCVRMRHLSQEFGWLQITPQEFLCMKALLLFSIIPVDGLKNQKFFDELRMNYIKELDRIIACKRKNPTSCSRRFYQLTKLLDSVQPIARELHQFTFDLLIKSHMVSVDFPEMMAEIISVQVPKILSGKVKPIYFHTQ
# The shares of active, inactive and inconclusive entries below differ from those in the screen. Potencies beside an inconclusive call are fits to weak or partial responses and may not hold up. Activity calls are given as the source filed them. How the source made its calls: active means hit-call score of the fitted dose curve at least 0.9, where 1 is the maximum; inconclusive means response in the unintended direction; inactive means score below 0.9.
# System: not listed separately
# Assay: ACEA_AR_agonist_AUC_viability: ACEA Biosciences xCELLigence Real-Time Cell Analysis on Androgen Receptor Agonism for Viability (AID 2283775);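 on AC50: viability read 80 hours after compound addition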
# Summary of the method: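 Viability endpoint from xCELLigence impedance in 22Rv1 prostate cells at 80 h. Eight-point series, 100 uM maximum final.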
Compound,AC50,outcome
COS(C)(=O)=O,inconclusive: 50 µM,
C#CC(O)C(CC)CCCC (stereo not drawn),,inactive
COc1cc(/C=C/C(=O)CC(=O)/C=C/c2ccc(O)c(OC)c2)ccc1O,active: 27 µM,
CCCCCCCCCC[N+](C)(C)[O-],,inactive
CCCCCCCCCCOC(=O)c1ccccc1C(=O)OCCCCCCCC,,inactive
O=C1O[C@H]([C@@H](O)CO)C(O)=C1O,,inactive
CCn1nc(C)c2c1C(=O)NCC(c1ccc(O)cc1)=N2,active: 25.8 µM,
CCc1cc(Cc2cc(CC)cc(C(C)(C)C)c2O)c(O)c(C(C)(C)C)c1,active: 24.3 µM,
CCNc1ccccc1,,inactive
O=NO,inconclusive: 50 µM,
OB(O)O,inconclusive: 0.00193 µM,
COC(=O)CCCC(=O)OC,inconclusive: 0.00602 µM,
COc1cc(-c2nc(NC(=O)c3cc4cc(C)cc(C)c4n3CC(=O)O)sc2CCC2CCCCC2)c(OC)cc1Cl,active: 9.71 µM,
CCCCCCCCC=CCCCCCCCC1=NCCN1CCO,,inactive
CC(=O)O[C@H]1C[C@@H]2CC[C@@]1(C)C2(C)C,inconclusive: 0.0595 µM,
Cc1cccc(C)c1O,inconclusive: 50 µM,
C=C(C)[C@@H]1CC=C(C)C(=O)C1,,inactive
Nc1ccn([C@@H]2O[C@H](CO)[C@@H](O)[C@@H]2O)c(=O)n1,active: 1.22 µM,
O=c1cc(-c2ccccc2)oc2cc(O)cc(O)c12,inconclusive: 0.0951 µM,
COc1ccc(C)cc1N,,inactive
CCC(C)=NO,,inactive
Cc1cccc(Nc2cc(Cl)nc(SCC(=O)O)n2)c1C,,inactive
Cc1c(C(=O)c2c[nH]n(C)c2=O)ccc(S(C)(=O)=O)c1C1=NOCC1,,inactive
O=C(Oc1ccccc1)c1cccc(C(=O)Oc2ccccc2)c1,inconclusive: 10 µM,
O=C(Nc1ccc([N+](=O)[O-])cc1Cl)c1cc(Cl)ccc1O,active: 0.723 µM,
CCCCCCCC/C=C\CCCCCCCC(=O)OCC(O)CO (stereo not drawn),inconclusive: 28.2 µM,

# System: not listed separately
# Assay: ACEA_AR_antagonist_AUC_viability: ACEA Biosciences xCELLigence Real-Time Cell Analysis on Androgen Receptor Antagonism for Viability (AID 2283776);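 further: area under impedance growth curve at 80 h after dosing as viability; hits lower the growth signal relative to DMSO meaning cytotoxicity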
# Summary of the method: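 22Rv1 human prostate cancer cells were seeded on electrode plates, monitored overnight, then exposed to eight 1:4 dilutions from 100 uM final. Impedance-based growth kinetics at 80 h gave an AUC viability endpoint normalized to DMSO.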
Compound,AC50,outcome
Fc1ccc(Br)cc1,inconclusive: 4390 nM,
OC[C@@H](O)[C@H](O)[C@@H](O)[C@@H](O)CO,inconclusive: 321 nM,
CCCCCCCCCCCCN1CCCCCC1=O,inconclusive: 231 nM,
CC1=C(/C=C/C(C)=C/C=C/C(C)=C/CO)C(C)(C)CCC1,active: 79800 nM,
COCCOCCOCCO,inconclusive: 378 nM,
c1ccc(CNc2ncnc3nc[nH]c23)cc1,,inactive
CCCCCOC(=O)CCC,inconclusive: 161 nM,
CCCC=C(C=O)CC,inconclusive: 390 nM,
c1ccc(C[n+]2cccc3ccccc32)cc1,active: 82300 nM,
O=C(O)c1cc(O)c2ccccc2c1O,,inactive
CCCCC(CC)COC(=O)CCCCCCCCC(=O)OCC(CC)CCCC (stereo not drawn),inconclusive: 22.6 nM,

# System: not listed separately
# Assay: ACEA_ER_AUC_viability: ACEA Biosciences xCELLigence Real-Time Cell Analysis on Estrogen Receptor Agonism for Viability (AID 2283782);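 further: hit means loss of impedance signal meaning reduced cell growth or viability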
# Summary of the method: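 Continuous-exposure impedance cell analysis uses T-47D cells in charcoal-stripped serum, eight 1:4 dilutions topping at 100 uM final, biological duplicate. Area under the growth curve at 80 h is fitted against DMSO baseline.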
Compound,AC50,outcome
COS(C)(=O)=O,inconclusive: 50 µM,
COc1cc(/C=C/C(=O)CC(=O)/C=C/c2ccc(O)c(OC)c2)ccc1O,,inactive
CCCCCCCCCCOC(=O)c1ccccc1C(=O)OCCCCCCCC,inconclusive: 50 µM,
O=C1O[C@H]([C@@H](O)CO)C(O)=C1O,inconclusive: 10.3 µM,
CCn1nc(C)c2c1C(=O)NCC(c1ccc(O)cc1)=N2,inconclusive: 50 µM,
CCNc1ccccc1,,inactive
O=NO,,inactive
OB(O)O,inconclusive: 82.4 µM,
COC(=O)CCCC(=O)OC,inconclusive: 50 µM,
C=C(C)[C@@H]1CC=C(C)C(=O)C1,inconclusive: 0.0246 µM,
Nc1ccn([C@@H]2O[C@H](CO)[C@@H](O)[C@@H]2O)c(=O)n1,inconclusive: 9.92 µM,
CCC(C)=NO,,inactive
Cc1cccc(Nc2cc(Cl)nc(SCC(=O)O)n2)c1C,inconclusive: 38.5 µM,
Cc1c(C(=O)c2c[nH]n(C)c2=O)ccc(S(C)(=O)=O)c1C1=NOCC1,inconclusive: 5.7 µM,
O=C(Oc1ccccc1)c1cccc(C(=O)Oc2ccccc2)c1,inconclusive: 52 µM,

# Target: AR (gene 367) (UniProt P10275)
# Assay: ACEA_AR_agonist_80hr: ACEA Biosciences xCELLigence Real-Time Cell Analysis on Androgen Receptor Agonism for Proliferation (AID 2283783);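 further: hits increase impedance growth signal above DMSO baseline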
# Summary of the method: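 Real-time cell-growth kinetics were recorded by electrode impedance in 22Rv1 cells exposed to test chemicals up to 100 uM final; the 80 h timepoint served as the readout, fitted upward relative to DMSO controls, in biological duplicate.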
Compound,outcome,AC50
C#CC(O)C(CC)CCCC (stereo not drawn),inactive,
COc1cc(/C=C/C(=O)CC(=O)/C=C/c2ccc(O)c(OC)c2)ccc1O,inactive,
CCCCCCCCCC[N+](C)(C)[O-],,inconclusive: 0.00793 µM
CCCCCCCCCCOC(=O)c1ccccc1C(=O)OCCCCCCCC,,inconclusive: 16.6 µM
CCc1cc(Cc2cc(CC)cc(C(C)(C)C)c2O)c(O)c(C(C)(C)C)c1,,inconclusive: 16.6 µM
CCNc1ccccc1,,inconclusive: 50 µM
COc1cc(-c2nc(NC(=O)c3cc4cc(C)cc(C)c4n3CC(=O)O)sc2CCC2CCCCC2)c(OC)cc1Cl,,inconclusive: 25 µM
CCCCCCCCC=CCCCCCCCC1=NCCN1CCO,inactive,
CC(=O)O[C@H]1C[C@@H]2CC[C@@]1(C)C2(C)C,inactive,
Cc1cccc(C)c1O,inactive,
O=c1cc(-c2ccccc2)oc2cc(O)cc(O)c12,,active: 0.0729 µM
COc1ccc(C)cc1N,,inconclusive: 0.00562 µM
Cc1cccc(Nc2cc(Cl)nc(SCC(=O)O)n2)c1C,,inconclusive: 45 µM
Cc1c(C(=O)c2c[nH]n(C)c2=O)ccc(S(C)(=O)=O)c1C1=NOCC1,,inconclusive: 0.0476 µM
O=C(Oc1ccccc1)c1cccc(C(=O)Oc2ccccc2)c1,inactive,
CCCCCCCC/C=C\CCCCCCCC(=O)OCC(O)CO (stereo not drawn),,active: 27.9 µM

# Reformatted tab-delimited: entries from further up.
Compound	outcome	AC50
C#CC(O)C(CC)CCCC (stereo not drawn)	inactive	
CCCCCCCCCCOC(=O)c1ccccc1C(=O)OCCCCCCCC		inconclusive: 16.6 µM
CCCCCCCCC=CCCCCCCCC1=NCCN1CCO	inactive	
O=c1cc(-c2ccccc2)oc2cc(O)cc(O)c12		active: 0.0729 µM
Cc1cccc(Nc2cc(Cl)nc(SCC(=O)O)n2)c1C		inconclusive: 45 µM
